From patent publication US20120022131A1
Results are given in words; binding and its absence hold for the method and conditions named. In cells and extracts the contact can be indirect. Some results given as binding are weak or reduced against the parent protein; the word gives no strength. Tags and fused reporters may be left off the sequences shown.

Protein sequences, listed by entry. Tags and fused reporters are not part of them. Lines headed by an entry give the natural chain unless they say otherwise; changes in a name come on top.
UniProt Q5R6Z6: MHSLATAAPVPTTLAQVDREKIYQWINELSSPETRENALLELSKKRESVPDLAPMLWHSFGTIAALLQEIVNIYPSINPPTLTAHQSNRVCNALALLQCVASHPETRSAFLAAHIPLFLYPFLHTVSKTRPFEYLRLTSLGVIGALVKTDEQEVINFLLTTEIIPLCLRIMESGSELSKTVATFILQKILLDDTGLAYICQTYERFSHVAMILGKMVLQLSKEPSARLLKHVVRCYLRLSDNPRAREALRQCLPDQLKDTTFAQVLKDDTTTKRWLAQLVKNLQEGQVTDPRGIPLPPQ

What was measured:
HA-tagged GIGYF2 (human) [1] = biological target: T1, HA-tagged GIGYF2 (human) (UniProt Q6Y7W6); experiment: co-immunoprecipitation in HEK293T cells, peptide elution, western blot (figure legend)
T1 sequence: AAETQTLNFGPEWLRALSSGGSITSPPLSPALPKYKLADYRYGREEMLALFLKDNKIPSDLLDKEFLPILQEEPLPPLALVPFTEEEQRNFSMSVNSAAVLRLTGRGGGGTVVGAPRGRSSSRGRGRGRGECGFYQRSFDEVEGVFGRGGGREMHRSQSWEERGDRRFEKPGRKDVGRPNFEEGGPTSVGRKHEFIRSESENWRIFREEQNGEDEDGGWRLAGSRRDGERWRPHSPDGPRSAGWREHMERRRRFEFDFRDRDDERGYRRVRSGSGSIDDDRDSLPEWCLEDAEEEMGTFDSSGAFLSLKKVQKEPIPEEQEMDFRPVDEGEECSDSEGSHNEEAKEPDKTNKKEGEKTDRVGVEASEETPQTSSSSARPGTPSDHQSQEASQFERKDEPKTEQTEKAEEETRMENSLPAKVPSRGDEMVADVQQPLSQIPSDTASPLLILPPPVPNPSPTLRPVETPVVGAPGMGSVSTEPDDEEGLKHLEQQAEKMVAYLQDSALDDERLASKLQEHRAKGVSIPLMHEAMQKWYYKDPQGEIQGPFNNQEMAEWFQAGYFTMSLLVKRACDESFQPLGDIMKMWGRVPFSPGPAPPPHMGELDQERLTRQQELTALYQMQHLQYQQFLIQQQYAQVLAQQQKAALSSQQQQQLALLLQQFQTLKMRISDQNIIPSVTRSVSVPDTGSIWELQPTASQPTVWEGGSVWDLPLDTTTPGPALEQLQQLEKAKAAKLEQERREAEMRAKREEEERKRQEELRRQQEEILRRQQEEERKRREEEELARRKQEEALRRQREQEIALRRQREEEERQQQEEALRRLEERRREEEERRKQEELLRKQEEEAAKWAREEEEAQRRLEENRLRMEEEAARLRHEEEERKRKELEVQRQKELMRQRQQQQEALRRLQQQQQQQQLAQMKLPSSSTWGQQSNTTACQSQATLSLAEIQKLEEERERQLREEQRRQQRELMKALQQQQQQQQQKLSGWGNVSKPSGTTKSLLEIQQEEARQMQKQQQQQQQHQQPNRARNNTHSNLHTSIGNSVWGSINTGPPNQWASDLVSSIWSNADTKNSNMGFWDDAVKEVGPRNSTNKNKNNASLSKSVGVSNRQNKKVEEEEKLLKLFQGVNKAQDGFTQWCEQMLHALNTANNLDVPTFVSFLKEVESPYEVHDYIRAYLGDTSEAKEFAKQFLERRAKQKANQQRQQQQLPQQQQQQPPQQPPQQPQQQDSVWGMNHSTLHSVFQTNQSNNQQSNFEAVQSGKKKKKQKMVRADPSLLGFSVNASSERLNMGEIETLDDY

HA-tagged GIGYF1 (human) [2] = biological target: T2, HA-tagged GIGYF1 (human) (UniProt O75420); experiment: as above
T2 sequence: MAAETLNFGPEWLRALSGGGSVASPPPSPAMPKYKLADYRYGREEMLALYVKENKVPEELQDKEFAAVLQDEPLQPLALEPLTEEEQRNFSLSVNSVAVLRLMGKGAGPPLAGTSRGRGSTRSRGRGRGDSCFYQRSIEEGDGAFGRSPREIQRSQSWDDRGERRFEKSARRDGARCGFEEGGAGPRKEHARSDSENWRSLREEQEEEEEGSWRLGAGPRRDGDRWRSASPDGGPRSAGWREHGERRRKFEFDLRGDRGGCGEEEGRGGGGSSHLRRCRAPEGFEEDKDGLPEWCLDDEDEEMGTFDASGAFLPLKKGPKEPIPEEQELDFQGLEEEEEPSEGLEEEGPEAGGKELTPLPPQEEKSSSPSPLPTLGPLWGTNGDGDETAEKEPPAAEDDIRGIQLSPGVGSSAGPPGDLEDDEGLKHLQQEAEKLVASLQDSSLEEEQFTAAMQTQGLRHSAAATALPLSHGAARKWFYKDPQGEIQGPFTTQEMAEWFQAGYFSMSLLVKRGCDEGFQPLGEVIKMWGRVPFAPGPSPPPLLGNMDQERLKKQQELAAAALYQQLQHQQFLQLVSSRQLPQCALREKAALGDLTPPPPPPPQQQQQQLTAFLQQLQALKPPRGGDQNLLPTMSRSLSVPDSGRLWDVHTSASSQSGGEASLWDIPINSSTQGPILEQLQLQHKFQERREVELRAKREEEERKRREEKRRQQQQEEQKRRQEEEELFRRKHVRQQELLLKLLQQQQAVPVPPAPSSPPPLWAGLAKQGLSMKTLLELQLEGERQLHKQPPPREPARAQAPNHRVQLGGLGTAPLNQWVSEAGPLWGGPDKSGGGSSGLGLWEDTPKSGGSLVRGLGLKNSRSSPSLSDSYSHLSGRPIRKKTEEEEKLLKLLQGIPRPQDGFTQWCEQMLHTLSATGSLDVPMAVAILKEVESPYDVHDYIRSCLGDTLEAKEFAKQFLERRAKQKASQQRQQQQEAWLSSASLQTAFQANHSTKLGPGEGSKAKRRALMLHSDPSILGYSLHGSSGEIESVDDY

HA-tagged GIGYF2 (human) [3] = biological target: T1, HA-tagged GIGYF2 (human); experiment: co-immunoprecipitation in co-transfected HEK293T cells, both directions (anti-Flag and anti-HA agarose), western blot
HA-tagged GIGYF1 (human) [4] = biological target: T2, HA-tagged GIGYF1 (human); experiment: as above

Measured: binding

Flag-tagged RQCD1 (from UniProt Q5R6Z6 1-299)
binds: all assays above
